# PubChem BioAssay AID720505 – Drosophila RNAi Screening Center, 2013
# Purpose: 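Fly regulators or components of the CRAC channel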 (primary screen)
# Cells: Drosophila S2R+ cells
# Reagents: long dsRNA against Drosophila genes
# Treatment: thapsigargin (2 µM) in calcium-free buffer to empty internal stores, then 2 mM calcium added back
# Detection: 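Fluo-4 signal in 384-well plates read on a FLIPR after thapsigargin (2 µM, calcium-free) store depletion and 2 mM calcium add-back; unnormalised mean endpoint per well; screen run twice, selected wells retested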
# Scale: calcium signal and retest calcium signal: higher = more calcium entry after store depletion
# Active means: 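Knock-downs counted as hits when calcium entry dropped relative to STIM1 positive and Rho1 negative controls present on each plate; roughly 1500 genes called, with reductions of differing size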
# Calls: active = called as lowering calcium entry; inactive = not called
# The deposit covers about 20,000 reagents; shown is an unselected part of those with a known target gene and a result. Of all reagents, about 2,100 (10%) are marked active. 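Raw plate signals without normalisation; calls rest on control-based scores that were not deposited; replicate 2 separates called from uncalled poorly.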 Names joined by + are all predicted targets of the reagent. The record does not give: the amount of reagent, the time to read-out.
Target gene,dsRNA,"calcium signal, replicate 1","calcium signal, replicate 2","retest calcium signal, replicate 1","retest calcium signal, replicate 2",Call
Taf2,DRSC11298,102,97.9,,,inactive
Socs16D,DRSC20087,132,146,,,inactive
Socs16D,DRSC23165,110,102,,,inactive
E5,DRSC16585,95.9,174,,,inactive
E5,DRSC23157,86.4,148,,,inactive
Fbl6,DRSC06335,120,132,,,inactive
Lcp1,DRSC07455,117,98.5,,,inactive
Mfap1,DRSC08154,76.8,133,,,active
Tango5,DRSC18023,146,152,,,inactive
dmGlut,DRSC02835,104,96.6,,,inactive
CG7627,DRSC03065,172,326,,,inactive
CG32079,DRSC22636,116,209,,,inactive
CG32081,DRSC09861,50.1,99.5,,,inactive
Tsp96F,DRSC14147,114,128,,,inactive
ebd1,DRSC08565,128,101,,,inactive
Mtap,DRSC06890,214,130,,,inactive
CCHa2,DRSC14835,151,196,10488,190,inactive
Bub1,DRSC02357,132,209,,,inactive
Bub1,DRSC23158,92.5,154,,,inactive
Sobp,DRSC07312,180,135,,,inactive
ND-PDSW,DRSC00715,127,251,,,inactive
CG10492,DRSC02064,124,149,,,inactive
CG7142,DRSC16204,148,131,,,inactive
CG1231,DRSC08267,101,86.9,,,inactive
Lamp1,DRSC03727,141,115,,,inactive
Ent3,DRSC09822,59.7,64.1,,,active
Lsd-2,DRSC20143,125,98,,,inactive
CG8461,DRSC16424,99.6,146,,,inactive
Atg10 + CG12822,DRSC06796,58.4,109,,,active
betaTub60D,DRSC04673,95.8,144,,,inactive
betaTub60D,DRSC22218,119,278,,,inactive
CG16775,DRSC10225,121,155,,,inactive
mthl15,DRSC01120,165,105,,,inactive
gw,DRSC17135,139,118,,,inactive
gw,DRSC17160,143,218,,,inactive
Esyt2,DRSC16082,224,192,,,inactive
up,DRSC20382,120,74.2,,,inactive
Grip84,DRSC20248,97.3,94.9,,,inactive
PolE4,DRSC04105,89.9,114,,,inactive
Spn88Eb,DRSC16093,108,154,,,inactive
pad,DRSC14227,98.1,160,,,inactive
CG6962,DRSC16153,79.3,102,,,active
Sdr,DRSC15517,110,141,,,inactive
CG11158,DRSC19389,75.3,106,,,active
CG6028,DRSC15951,119,149,,,inactive
CG6282,DRSC10616,114,124,,,inactive
CG9483,DRSC03226,73.6,78.1,,,inactive
Cyp6a19,DRSC07379,134,87.6,,,inactive
ALiX,DRSC14564,124,91.6,,,inactive
CG11110,DRSC06037,72,99.2,,,inactive
GstD2,DRSC16684,112,102,,,inactive
Nepl9,DRSC02255,95.9,127,,,inactive
ppk22,DRSC22093,95.8,204,,,inactive
mRpS10,DRSC15557,107,150,,,inactive
CG31952,DRSC00428,185,148,,,inactive
CG31952,DRSC21997,104,199,,,inactive
Pph13,DRSC00775,121,277,,,inactive
Pph13,DRSC23162,143,109,,,inactive
CG12398,DRSC19454,79.5,115,,,inactive
CG42374 + Mettl5,DRSC11085,131,127,,,inactive
Start1,DRSC04384,149,91.7,,,inactive
Dif,DRSC03316,102,142,,,inactive
CG7882,DRSC04899,123,158,,,inactive
Hdc,DRSC07439,152,208,,,inactive
Lon,DRSC11049,82.1,100,,,inactive
CG15012,DRSC08465,107,90.9,,,inactive
CNT1,DRSC06082,81,169,,,inactive
CG13049,DRSC09930,91.2,96.1,,,inactive
Tomosyn,DRSC19365,200,109,,,inactive
Tomosyn,DRSC19692,100,113,6159,87.5,inactive
Tomosyn,DRSC19782,140,132,,,inactive
Tomosyn,DRSC19842,76.3,88.5,7122,144,inactive
eIF3c,DRSC06905,122,115,,,inactive
CG1146,DRSC08189,144,94.3,,,inactive
mthl8,DRSC08211,71,160,,,active
mthl8,DRSC08311,79.3,101,,,inactive
dpr17,DRSC14957,95.8,84.8,,,inactive
dpr17,DRSC14958,67.6,83.7,,,active
CG31323,DRSC14901,220,112,,,inactive
FBXO11,DRSC16497,124,152,,,inactive
SmD1,DRSC09800,90.8,91.5,,,inactive
Oatp26F,DRSC02149,133,131,,,inactive
Oatp26F,DRSC02272,64.4,136,,,active
Oatp26F,DRSC02695,130,120,,,inactive

5 neighbouring reagents from above, quoted:
Target gene,dsRNA,"calcium signal, replicate 1","calcium signal, replicate 2","retest calcium signal, replicate 1","retest calcium signal, replicate 2",Call
Socs16D,DRSC20087,132,146,,,inactive
Socs16D,DRSC23165,110,102,,,inactive
E5,DRSC16585,95.9,174,,,inactive
E5,DRSC23157,86.4,148,,,inactive
Fbl6,DRSC06335,120,132,,,inactive
